Data on 1 substance can be found in article PMC10517005, “A conserved membrane protein negatively regulates Mce1 complexes in mycobacteria” (Nature Communications, 2023).

These are yes or no findings as the source states them, for the method shown. Binding seen in cells or lysates may run through a third protein. Binding calls can cover weak binding; strength is not graded here.

The target of the assay is His6-YrbE1B (M. smegmatis) (UniProt A0QNR1). The experiment in a line: pull-down.

Rv0513 (from UniProt O33358): the binding entry is given as “binds”.
